Reference: paper PMC11423137
No constants are given. Whether binding was seen depends on the method and setting. Binding seen in cells or lysates may run through a third protein. These calls come from enrichment with a bait or labelling near it, and not all partners need be listed.

Protein sequences, listed by entry. Tags and fused reporters are not part of them.
UniProt P67809: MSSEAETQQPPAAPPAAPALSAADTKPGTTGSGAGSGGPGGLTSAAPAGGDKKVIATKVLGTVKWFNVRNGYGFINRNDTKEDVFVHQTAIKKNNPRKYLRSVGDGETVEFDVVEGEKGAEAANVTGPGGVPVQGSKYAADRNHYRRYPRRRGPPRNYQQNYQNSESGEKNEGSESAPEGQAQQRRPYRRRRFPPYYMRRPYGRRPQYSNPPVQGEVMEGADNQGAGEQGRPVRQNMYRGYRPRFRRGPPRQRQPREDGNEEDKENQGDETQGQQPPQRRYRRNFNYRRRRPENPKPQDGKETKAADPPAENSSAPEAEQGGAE
UniProt P21673: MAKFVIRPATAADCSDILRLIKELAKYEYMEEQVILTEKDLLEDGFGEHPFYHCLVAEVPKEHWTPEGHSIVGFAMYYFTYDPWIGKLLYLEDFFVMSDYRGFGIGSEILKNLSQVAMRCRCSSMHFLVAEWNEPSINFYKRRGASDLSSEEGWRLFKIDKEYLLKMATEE
UniProt O95714: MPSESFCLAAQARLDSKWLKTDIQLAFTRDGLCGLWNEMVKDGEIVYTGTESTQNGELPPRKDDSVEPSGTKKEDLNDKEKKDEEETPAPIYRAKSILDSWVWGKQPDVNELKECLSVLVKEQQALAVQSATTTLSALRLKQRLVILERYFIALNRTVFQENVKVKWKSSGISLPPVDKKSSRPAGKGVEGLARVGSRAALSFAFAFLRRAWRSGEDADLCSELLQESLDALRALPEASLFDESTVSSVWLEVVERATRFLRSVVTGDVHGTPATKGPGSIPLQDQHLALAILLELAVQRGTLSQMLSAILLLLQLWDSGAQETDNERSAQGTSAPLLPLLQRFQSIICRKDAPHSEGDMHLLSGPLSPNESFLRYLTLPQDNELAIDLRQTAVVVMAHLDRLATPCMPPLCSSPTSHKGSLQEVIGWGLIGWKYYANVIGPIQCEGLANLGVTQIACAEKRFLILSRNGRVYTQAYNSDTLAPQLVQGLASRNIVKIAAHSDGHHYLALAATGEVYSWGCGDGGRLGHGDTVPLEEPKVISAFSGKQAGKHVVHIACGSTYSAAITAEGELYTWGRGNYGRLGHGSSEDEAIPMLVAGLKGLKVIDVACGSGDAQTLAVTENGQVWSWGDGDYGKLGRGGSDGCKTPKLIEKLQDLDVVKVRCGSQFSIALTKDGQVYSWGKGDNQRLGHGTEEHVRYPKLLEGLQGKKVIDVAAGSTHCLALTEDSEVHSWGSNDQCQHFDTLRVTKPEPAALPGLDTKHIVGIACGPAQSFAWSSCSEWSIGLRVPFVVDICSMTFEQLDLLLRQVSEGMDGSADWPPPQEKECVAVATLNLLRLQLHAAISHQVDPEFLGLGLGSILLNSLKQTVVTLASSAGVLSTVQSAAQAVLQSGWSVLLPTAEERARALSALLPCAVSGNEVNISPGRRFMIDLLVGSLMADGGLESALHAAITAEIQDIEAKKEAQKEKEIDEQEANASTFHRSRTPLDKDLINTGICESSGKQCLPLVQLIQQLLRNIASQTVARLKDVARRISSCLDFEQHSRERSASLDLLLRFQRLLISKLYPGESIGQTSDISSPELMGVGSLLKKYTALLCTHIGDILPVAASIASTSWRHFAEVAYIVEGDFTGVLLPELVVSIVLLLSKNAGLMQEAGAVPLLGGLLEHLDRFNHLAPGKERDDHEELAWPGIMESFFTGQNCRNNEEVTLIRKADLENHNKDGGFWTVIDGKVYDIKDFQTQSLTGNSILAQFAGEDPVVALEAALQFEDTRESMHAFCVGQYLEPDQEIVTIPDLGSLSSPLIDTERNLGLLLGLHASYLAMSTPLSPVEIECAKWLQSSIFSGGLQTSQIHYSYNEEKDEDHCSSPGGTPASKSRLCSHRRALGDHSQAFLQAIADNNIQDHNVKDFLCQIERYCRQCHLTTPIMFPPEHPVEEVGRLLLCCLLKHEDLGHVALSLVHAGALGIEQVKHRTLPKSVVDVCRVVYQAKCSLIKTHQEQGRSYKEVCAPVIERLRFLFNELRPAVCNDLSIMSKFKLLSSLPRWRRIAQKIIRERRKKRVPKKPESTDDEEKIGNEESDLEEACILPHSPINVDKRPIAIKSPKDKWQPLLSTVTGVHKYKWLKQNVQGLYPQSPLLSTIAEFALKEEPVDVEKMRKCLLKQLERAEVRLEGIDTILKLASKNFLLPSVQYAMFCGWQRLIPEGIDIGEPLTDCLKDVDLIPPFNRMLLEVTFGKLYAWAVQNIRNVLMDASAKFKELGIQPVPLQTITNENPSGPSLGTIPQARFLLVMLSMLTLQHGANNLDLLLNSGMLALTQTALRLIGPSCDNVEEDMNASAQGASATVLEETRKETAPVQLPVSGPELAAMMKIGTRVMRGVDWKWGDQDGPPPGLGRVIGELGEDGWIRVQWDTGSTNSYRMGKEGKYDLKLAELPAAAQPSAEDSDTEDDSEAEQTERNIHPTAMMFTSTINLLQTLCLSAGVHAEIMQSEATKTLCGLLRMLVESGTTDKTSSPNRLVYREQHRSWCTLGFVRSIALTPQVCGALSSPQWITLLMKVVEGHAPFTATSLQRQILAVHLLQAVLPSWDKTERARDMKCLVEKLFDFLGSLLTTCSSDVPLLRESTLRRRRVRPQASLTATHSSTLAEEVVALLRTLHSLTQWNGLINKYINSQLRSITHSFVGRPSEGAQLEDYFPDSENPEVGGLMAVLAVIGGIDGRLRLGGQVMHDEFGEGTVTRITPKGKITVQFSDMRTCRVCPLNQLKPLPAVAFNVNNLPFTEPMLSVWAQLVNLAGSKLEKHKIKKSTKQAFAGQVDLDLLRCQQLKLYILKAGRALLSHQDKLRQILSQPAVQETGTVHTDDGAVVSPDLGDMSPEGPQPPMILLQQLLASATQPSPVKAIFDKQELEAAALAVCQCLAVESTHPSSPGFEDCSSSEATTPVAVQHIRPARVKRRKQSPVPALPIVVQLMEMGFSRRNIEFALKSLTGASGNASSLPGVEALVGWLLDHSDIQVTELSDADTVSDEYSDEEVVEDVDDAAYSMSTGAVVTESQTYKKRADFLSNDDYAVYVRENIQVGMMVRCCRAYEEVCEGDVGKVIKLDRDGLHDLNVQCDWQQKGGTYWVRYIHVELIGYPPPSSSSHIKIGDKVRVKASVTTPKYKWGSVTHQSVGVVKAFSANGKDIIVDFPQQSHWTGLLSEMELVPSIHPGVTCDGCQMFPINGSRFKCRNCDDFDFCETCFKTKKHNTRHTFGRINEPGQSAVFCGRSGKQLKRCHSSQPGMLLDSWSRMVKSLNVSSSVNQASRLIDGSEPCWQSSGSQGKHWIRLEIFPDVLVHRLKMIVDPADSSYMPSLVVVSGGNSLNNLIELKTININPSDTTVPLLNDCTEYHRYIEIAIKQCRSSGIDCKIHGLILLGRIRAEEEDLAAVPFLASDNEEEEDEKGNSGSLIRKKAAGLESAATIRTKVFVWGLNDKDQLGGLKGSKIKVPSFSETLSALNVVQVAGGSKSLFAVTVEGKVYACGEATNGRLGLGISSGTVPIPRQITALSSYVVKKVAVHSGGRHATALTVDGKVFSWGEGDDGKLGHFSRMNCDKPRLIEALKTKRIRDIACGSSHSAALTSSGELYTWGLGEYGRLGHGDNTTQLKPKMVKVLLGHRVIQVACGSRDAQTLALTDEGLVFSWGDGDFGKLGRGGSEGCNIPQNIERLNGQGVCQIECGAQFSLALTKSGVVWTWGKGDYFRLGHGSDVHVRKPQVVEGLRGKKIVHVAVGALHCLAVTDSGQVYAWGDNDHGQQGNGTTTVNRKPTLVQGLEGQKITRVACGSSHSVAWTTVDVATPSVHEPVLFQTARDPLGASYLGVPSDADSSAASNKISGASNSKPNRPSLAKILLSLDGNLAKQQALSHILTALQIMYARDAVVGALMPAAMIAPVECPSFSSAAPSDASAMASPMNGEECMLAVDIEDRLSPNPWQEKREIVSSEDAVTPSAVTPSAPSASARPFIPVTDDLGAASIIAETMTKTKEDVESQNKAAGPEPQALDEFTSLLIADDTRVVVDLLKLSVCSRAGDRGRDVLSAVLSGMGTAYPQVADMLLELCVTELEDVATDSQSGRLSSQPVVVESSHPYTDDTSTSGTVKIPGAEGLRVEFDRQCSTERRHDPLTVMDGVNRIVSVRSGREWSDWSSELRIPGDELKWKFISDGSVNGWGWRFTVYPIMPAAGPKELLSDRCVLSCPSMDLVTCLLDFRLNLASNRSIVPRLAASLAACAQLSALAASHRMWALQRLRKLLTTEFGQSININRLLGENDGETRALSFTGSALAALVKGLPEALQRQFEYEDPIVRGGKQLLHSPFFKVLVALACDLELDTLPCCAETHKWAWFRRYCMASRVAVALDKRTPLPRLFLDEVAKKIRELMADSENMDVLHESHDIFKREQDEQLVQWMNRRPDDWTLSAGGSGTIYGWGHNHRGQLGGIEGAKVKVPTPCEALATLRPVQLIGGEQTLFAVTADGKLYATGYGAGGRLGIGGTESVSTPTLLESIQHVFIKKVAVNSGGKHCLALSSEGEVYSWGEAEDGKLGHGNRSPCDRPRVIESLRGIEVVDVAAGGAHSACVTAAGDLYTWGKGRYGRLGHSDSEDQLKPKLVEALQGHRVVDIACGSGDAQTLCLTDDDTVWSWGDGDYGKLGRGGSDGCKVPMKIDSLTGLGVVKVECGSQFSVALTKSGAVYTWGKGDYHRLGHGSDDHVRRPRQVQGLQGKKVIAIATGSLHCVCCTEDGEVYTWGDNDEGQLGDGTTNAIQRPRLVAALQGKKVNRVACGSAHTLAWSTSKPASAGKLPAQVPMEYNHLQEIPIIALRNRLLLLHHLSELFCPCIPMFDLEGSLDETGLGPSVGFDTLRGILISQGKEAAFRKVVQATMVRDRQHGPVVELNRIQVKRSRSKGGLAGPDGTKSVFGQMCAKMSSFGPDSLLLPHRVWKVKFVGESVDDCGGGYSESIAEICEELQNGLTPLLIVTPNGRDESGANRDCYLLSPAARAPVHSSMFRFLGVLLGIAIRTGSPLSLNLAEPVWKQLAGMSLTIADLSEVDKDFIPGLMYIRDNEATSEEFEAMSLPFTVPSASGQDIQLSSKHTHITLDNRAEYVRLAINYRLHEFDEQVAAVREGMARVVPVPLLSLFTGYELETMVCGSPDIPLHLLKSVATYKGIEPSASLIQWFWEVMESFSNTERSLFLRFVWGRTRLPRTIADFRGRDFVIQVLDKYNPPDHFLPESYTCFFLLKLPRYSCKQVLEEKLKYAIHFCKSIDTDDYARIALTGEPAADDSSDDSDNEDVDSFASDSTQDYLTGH

Tests used:
[1] = molecular target: Y-box binding protein 1 (human (endogenous in BT549 and SUM159PT)) (UniProt P67809); assay: affinity purification with mass spectrometry; mass spectrometry of YBX1 immunoprecipitants from BT549 cells
[2] = molecular target: Spermidine/Spermine N1-acetyltransferase 1 (human (endogenous in BT549 and SUM159PT)) (UniProt P21673); assay: affinity purification with mass spectrometry; CoIP of SAT1 from BT549 and SUM159PT lysates, IgG controls; proteins of the control excluded, intersection of the two cell lines taken

binding [1]	binding [2]	Molecule
binds	–	E3 ligase HERC2 (from UniProt O95714 1-4834) (enzyme)
–	binds	Y-box binding protein 1 (from UniProt P67809 1-324)
binds	–	E3 ligase HERC5 (enzyme, UniProt Q9UII4 1-1024) MERRSRRKSRRNGRSTAGKAAATQPAKSPGAQLWLFPSAAGLHRALLRRVEVTRQLCCSPGRLAVLERGGAGVQVHQLLAGSGGARTPKCIKLGKNMKIHSVDQGAEHMLILSSDGKPFEYDNYSMKHLRFESILQEKKIIQITCGDYHSLALSKGGELFAWGQNLHGQLGVGRKFPSTTTPQIVEHLAGVPLAQISAGEAHSMALSMSGNIYSWGKNECGQLGLGHTESKDDPSLIEGLDNQKVEFVACGGSHSALLTQDGLLFTFGAGKHGQLGHNSTQNELRPCLVAELVGYRVTQIACGRWHTLAYVSDLGKVFSFGSGKDGQLGNGGTRDQLMPLPVKVSSSEELKLESHTSEKELIMIAGGNQSILLWIKKENSYVNLKRTIPTLNEGTVKRWIADVETKRWQSTKREIQEIFSSPACLTGSFLRKRRTTEMMPVYLDLNKARNIFKELTQKDWITNMITTCLKDNLLKRLPFHSPPQEALEIFFLLPECPMMHISNNWESLVVPFAKVVCKMSDQSSLVLEEYWATLQESTFSKLVQMFKTAVICQLDYWDESAEENGNVQALLEMLKKLHRVNQVKCQLPESIFQVDELLHRLNFFVEVCRRYLWKMTVDASENVQCCVIFSHFPFIFNNLSKIKLLHTDTLLKIESKKHKAYLRSAAIEEERESEFALRPTFDLTVRRNHLIEDVLNQLSQFENEDLRKELWVSFSGEIGYDLGGVKKEFFYCLFAEMIQPEYGMFMYPEGASCMWFPVKPKFEKKRYFFFGVLCGLSLFNCNVANLPFPLALFKKLLDQMPSLEDLKELSPDLGKNLQTLLDDEGDNFEEVFYIHFNVHWDRNDTNLIPNGSSITVNQTNKRDYVSKYINYIFNDSVKAVYEEFRRGFYKMCDEDIIKLFHPEELKDVIVGNTDYDWKTFEKNARYEPGYNSSHPTIVMFWKAFHKLTLEEKKKFLVFLTGTDRLQMKDLNNMKITFCCPESWNERDPIRALTCFSVLFLPKYSTMETVEEALQEAINNNRGFG
